Numbered stars: 1 amine (or outer) side, 2 acyl side, 3 side chain; on linkers, the order of the positions; unused ones are H or OH. Bridge positions count the residues as written; N and C are the ends. Square brackets hold non-standard residues; d marks the D form. * marks the point of attachment. X2 = O=C(O)c1ccc(C(=O)*)cc1-c1c2ccc(=O)cc-2oc2cc(O)ccc12; DOTA = O=C(O)CN1CCN(CC(=O)O)CCN(CC(=O)*)CCN(CC(=O)O)CC1; TATA = O=C(CC[*:1])N1CN(C(=O)CC[*:2])CN(C(=O)CC[*:3])C1; X1 = O=C(O)CN1CCN(CC(=O)O)CCN([C@H](CCC(=O)*)C(=O)O)CC1; 1Nal = N[C@@H](Cc1cccc2ccccc12)C(=O)O; 2Nal = N[C@@H](Cc1ccc2ccccc2c1)C(=O)O; Hyp = O=C(O)[C@@H]1C[C@@H](O)CN1; hArg = N=C(N)NCCCC[C@H](N)C(=O)O; hSer = N[C@@H](CCO)C(=O)O; Nle = CCCC[C@H](N)C(=O)O
Assay: general procedure: Fmoc solid-phase peptide synthesis; Fmoc-Rink Amide resin (2-ClTrtCl resin for 8d); HATU/DIPEA
Conditions: whole synthesis; for final HPLC purity: 230 nm; for isolated yield: on resin loading

Substance: CCCC[C@@H]1NC(=O)[C@@H]2CSCCC(=O)N3CN(CN(C3)C(=O)CCSC[C@H](NC(C)=O)C(=O)N3CCC[C@H]3C(=O)N[C@@H](Cc3cccc4ccccc34)C(=O)N[C@H](CC(=O)O)C(=O)N2)C(=O)CCSC[C@@H](C(N)=O)NC(=O)[C@H](Cc2c[nH]c3ccccc23)NC(=O)[C@@H]2C[C@@H](O)CN2C(=O)[C@@H]2CCCN2C(=O)[C@H]([C@@H](C)O)NC(=O)[C@H](CO)NC(=O)[C@H](Cc2c[nH]c3ccccc23)NC(=O)[C@H](CC(=O)O)NC(=O)[C@H](CCCCNC(=N)N)NC1=O (Ac-CP[1Nal][dD]C[Nle][hArg]DWSTP[Hyp]WC-NH2; linker 1-5-15 via TATA)
- final HPLC purity: >97%
- isolated yield: 10%

Substance: CCOC[C@@H]1NC(=O)[C@@H]2CSCCC(=O)N3CN(CN(C3)C(=O)CCSC[C@H](NC(=O)CC[C@H](C(=O)O)N3CCN(CC(=O)O)CCN(CC(=O)O)CC3)C(=O)N3CCC[C@H]3C(=O)N[C@@H](Cc3cccc4ccccc34)C(=O)N[C@H](CC(=O)O)C(=O)N2)C(=O)CCSC[C@@H](C(N)=O)NC(=O)[C@H](Cc2c[nH]c3ccccc23)NC(=O)[C@@H]2C[C@@H](O)CN2C(=O)[C@@H]2CCCN2C(=O)[C@H]([C@@H](C)O)NC(=O)[C@H](CO)NC(=O)[C@H](Cc2c[nH]c3ccccc23)NC(=O)[C@H](CC(=O)O)NC(=O)[C@H](CCCCNC(=N)N)NC1=O (X1-CP[1Nal][dD]CS(Et)[hArg]DWSTP[Hyp]WC-NH2; linker 1-5-15 via TATA; SMILES CCOC[C@@H]1NC(=O)[C@@H]2CSCCC(=O)N3CN(CN(C3)C(=O)CCSC[C@H](NC(=O)CC[C@H](C(=O)O)N3CCN(CC(=O)O)CCN(CC(=O)O)CC3)C(=O)N3CCC[C@H]3C(=O)N[C@@H](Cc3cccc4ccccc34)C(=O)N[C@H](CC(=O)O)C(=O)N2)C(=O)CCSC[C@@H](C(N)=O)NC(=O)[C@H](Cc2c[nH]c3ccccc23)NC(=O)[C@@H]2C[C@@H](O)CN2C(=O)[C@@H]2CCCN2C(=O)[C@H]([C@@H](C)O)NC(=O)[C@H](CO)NC(=O)[C@H](Cc2c[nH]c3ccccc23)NC(=O)[C@H](CC(=O)O)NC(=O)[C@H](CCCCNC(=N)N)NC1=O)
- final HPLC purity: >98%
- isolated yield: 7%

Substance: CCSC[C@@H]1NC(=O)[C@@H]2CSCCC(=O)N3CN(CN(C3)C(=O)CCSC[C@H](NC(=O)CC[C@H](C(=O)O)N3CCN(CC(=O)O)CCN(CC(=O)O)CC3)C(=O)N3CCC[C@H]3C(=O)N[C@@H](Cc3cccc4ccccc34)C(=O)N[C@H](CC(=O)O)C(=O)N2)C(=O)CCSC[C@@H](C(N)=O)NC(=O)[C@H](Cc2c[nH]c3ccccc23)NC(=O)[C@@H]2C[C@@H](O)CN2C(=O)[C@@H]2CCCN2C(=O)[C@H]([C@@H](C)O)NC(=O)[C@H](CO)NC(=O)[C@H](Cc2c[nH]c3ccccc23)NC(=O)[C@H](CC(=O)O)NC(=O)[C@H](CCCCNC(=N)N)NC1=O (X1-CP[1Nal][dD]CC(Et)[hArg]DWSTP[Hyp]WC-NH2; linker 1-5-15 via TATA; SMILES CCSC[C@@H]1NC(=O)[C@@H]2CSCCC(=O)N3CN(CN(C3)C(=O)CCSC[C@H](NC(=O)CC[C@H](C(=O)O)N3CCN(CC(=O)O)CCN(CC(=O)O)CC3)C(=O)N3CCC[C@H]3C(=O)N[C@@H](Cc3cccc4ccccc34)C(=O)N[C@H](CC(=O)O)C(=O)N2)C(=O)CCSC[C@@H](C(N)=O)NC(=O)[C@H](Cc2c[nH]c3ccccc23)NC(=O)[C@@H]2C[C@@H](O)CN2C(=O)[C@@H]2CCCN2C(=O)[C@H]([C@@H](C)O)NC(=O)[C@H](CO)NC(=O)[C@H](Cc2c[nH]c3ccccc23)NC(=O)[C@H](CC(=O)O)NC(=O)[C@H](CCCCNC(=N)N)NC1=O)
- final HPLC purity: >97%
- isolated yield: 8%

Substance: COCC[C@@H]1NC(=O)[C@@H]2CSCCC(=O)N3CN(CN(C3)C(=O)CCSC[C@H](NC(=O)CC[C@H](C(=O)O)N3CCN(CC(=O)O)CCN(CC(=O)O)CC3)C(=O)N3CCC[C@H]3C(=O)N[C@@H](Cc3cccc4ccccc34)C(=O)N[C@H](CC(=O)O)C(=O)N2)C(=O)CCSC[C@@H](C(N)=O)NC(=O)[C@H](Cc2c[nH]c3ccccc23)NC(=O)[C@@H]2C[C@@H](O)CN2C(=O)[C@@H]2CCCN2C(=O)[C@H]([C@@H](C)O)NC(=O)[C@H](CO)NC(=O)[C@H](Cc2c[nH]c3ccccc23)NC(=O)[C@H](CC(=O)O)NC(=O)[C@H](CCCCNC(=N)N)NC1=O [4] (X1-CP[1Nal][dD]C[hSer](Me)[hArg]DWSTP[Hyp]WC-NH2; linker 1-5-15 via TATA)
- final HPLC purity: >98%
- isolated yield: 9%

Substance: CSCC[C@@H]1NC(=O)[C@@H]2CSCCC(=O)N3CN(CN(C3)C(=O)CCSC[C@H](N)C(=O)N3CCC[C@H]3C(=O)N[C@@H](Cc3cccc4ccccc34)C(=O)N[C@H](CC(=O)O)C(=O)N2)C(=O)CCSC[C@@H](C(N)=O)NC(=O)[C@H](Cc2c[nH]c3ccccc23)NC(=O)[C@@H]2C[C@@H](O)CN2C(=O)[C@@H]2CCCN2C(=O)[C@H]([C@@H](C)O)NC(=O)[C@H](CO)NC(=O)[C@H](Cc2c[nH]c3ccccc23)NC(=O)[C@H](CC(=O)O)NC(=O)[C@H](CCCCNC(=N)N)NC1=O
- final HPLC purity: >98%
- isolated yield: 4%

Substance: CSCC[C@@H]1NC(=O)[C@@H]2CSCCC(=O)N3CN(CN(C3)C(=O)CCSC[C@H](NC(=O)CC[C@H](C(=O)O)N3CCN(CC(=O)O)CCN(CC(=O)O)CC3)C(=O)N3CCC[C@H]3C(=O)N[C@@H](Cc3ccc4ccccc4c3)C(=O)N[C@H](CC(=O)O)C(=O)N2)C(=O)CCSC[C@@H](C(N)=O)NC(=O)[C@H](Cc2c[nH]c3ccccc23)NC(=O)[C@@H]2C[C@@H](O)CN2C(=O)[C@@H]2CCCN2C(=O)[C@H]([C@@H](C)O)NC(=O)[C@H](CO)NC(=O)[C@H](Cc2c[nH]c3ccccc23)NC(=O)[C@H](CC(=O)O)NC(=O)[C@H](CCCNC(=N)N)NC1=O (X1-CP[2Nal][dD]CMRDWSTP[Hyp]WC-NH2; linker 1-5-15 via TATA)
- final HPLC purity: >95%
- isolated yield: 6%

Substance: CSCC[C@@H]1NC(=O)[C@@H]2CSCCC(=O)N3CN(CN(C3)C(=O)CCSC[C@H](NC(=O)CN3CCN(CC(=O)O)CCN(CC(=O)O)CCN(CC(=O)O)CC3)C(=O)N3CCC[C@H]3C(=O)N[C@@H](Cc3ccc4ccccc4c3)C(=O)N[C@H](CC(=O)O)C(=O)N2)C(=O)CCSC[C@@H](C(N)=O)NC(=O)[C@H](Cc2c[nH]c3ccccc23)NC(=O)[C@@H]2C[C@@H](O)CN2C(=O)[C@@H]2CCCN2C(=O)[C@H]([C@@H](C)O)NC(=O)[C@H](CO)NC(=O)[C@H](Cc2c[nH]c3ccccc23)NC(=O)[C@H](CC(=O)O)NC(=O)[C@H](CCCNC(=N)N)NC1=O ({DOTA}-CP[2Nal][dD]CMRDWSTP[Hyp]WC-NH2; linker 1-5-15 via TATA)
- final HPLC purity: >99%
- isolated yield: 4%

Substance: CSCC[C@@H]1NC(=O)[C@@H]2CSCCC(=O)N3CN(CN(C3)C(=O)CCSC[C@H](NC(=O)CN3CCN(CC(=O)O)CCN(CC(=O)O)CCN(CC(=O)O)CC3)C(=O)N3CCC[C@H]3C(=O)N[C@@H](Cc3cccc4ccccc34)C(=O)N[C@H](CC(=O)O)C(=O)N2)C(=O)CCSCC(C(N)=O)NC(=O)[C@H](Cc2c[nH]c3ccccc23)NC(=O)[C@@H]2C[C@@H](O)CN2C(=O)[C@@H]2CCCN2C(=O)[C@H]([C@@H](C)O)NC(=O)[C@H](CO)NC(=O)[C@H](Cc2c[nH]c3ccccc23)NC(=O)[C@H](CC(=O)O)NC(=O)[C@H](CCCCNC(=N)N)NC1=O
- final HPLC purity: >99%
- isolated yield: 12%

Substance: CSCC[C@@H]1NC(=O)[C@@H]2CSCCC(=O)N3CN(CN(C3)C(=O)CCSC[C@H](NC(=O)c3ccc(C(=O)O)c(-c4c5ccc(=O)cc-5oc5cc(O)ccc45)c3)C(=O)N3CCC[C@H]3C(=O)N[C@@H](Cc3ccc4ccccc4c3)C(=O)N[C@H](CC(=O)O)C(=O)N2)C(=O)CCSC[C@@H](C(N)=O)NC(=O)[C@H](Cc2c[nH]c3ccccc23)NC(=O)[C@@H]2C[C@@H](O)CN2C(=O)[C@@H]2CCCN2C(=O)[C@H]([C@@H](C)O)NC(=O)[C@H](CO)NC(=O)[C@H](Cc2c[nH]c3ccccc23)NC(=O)[C@H](CC(=O)O)NC(=O)[C@H](CCCNC(=N)N)NC1=O (X2-CP[2Nal][dD]CMRDWSTP[Hyp]WC-NH2; linker 1-5-15 via TATA; SMILES CSCC[C@@H]1NC(=O)[C@@H]2CSCCC(=O)N3CN(CN(C3)C(=O)CCSC[C@H](NC(=O)c3ccc(C(=O)O)c(-c4c5ccc(=O)cc-5oc5cc(O)ccc45)c3)C(=O)N3CCC[C@H]3C(=O)N[C@@H](Cc3ccc4ccccc4c3)C(=O)N[C@H](CC(=O)O)C(=O)N2)C(=O)CCSC[C@@H](C(N)=O)NC(=O)[C@H](Cc2c[nH]c3ccccc23)NC(=O)[C@@H]2C[C@@H](O)CN2C(=O)[C@@H]2CCCN2C(=O)[C@H]([C@@H](C)O)NC(=O)[C@H](CO)NC(=O)[C@H](Cc2c[nH]c3ccccc23)NC(=O)[C@H](CC(=O)O)NC(=O)[C@H](CCCNC(=N)N)NC1=O)
- final HPLC purity: >99%
- isolated yield: 5%

Substance: CSCC[C@@H]1NC(=O)[C@@H]2CSCCC(=O)N3CN(CN(C3)C(=O)CCSC[C@H](NC(=O)c3ccc(C(=O)O)c(-c4c5ccc(=O)cc-5oc5cc(O)ccc45)c3)C(=O)N3CCC[C@H]3C(=O)N[C@@H](Cc3cccc4ccccc34)C(=O)N[C@H](CC(=O)O)C(=O)N2)C(=O)CCSC[C@@H](C(N)=O)NC(=O)[C@H](Cc2c[nH]c3ccccc23)NC(=O)[C@@H]2C[C@@H](O)CN2C(=O)[C@@H]2CCCN2C(=O)[C@H]([C@@H](C)O)NC(=O)[C@H](CO)NC(=O)[C@H](Cc2c[nH]c3ccccc23)NC(=O)[C@H](CC(=O)O)NC(=O)[C@H](CCCCNC(=N)N)NC1=O
- final HPLC purity: >98%
- isolated yield: 12%

Substance: CSCC[C@@H]1NC(=O)[C@@H]2CSCCC(=O)N3CN(CN(C3)C(=O)CCSC[C@H](NC(=O)c3ccc(C(=O)O)c(-c4c5ccc(=[N+](C)C)cc-5oc5cc(N(C)C)ccc45)c3)C(=O)N3CCC[C@H]3C(=O)N[C@@H](Cc3cccc4ccccc34)C(=O)N[C@H](CC(=O)O)C(=O)N2)C(=O)CCSC[C@@H](C(N)=O)NC(=O)[C@H](Cc2c[nH]c3ccccc23)NC(=O)[C@@H]2C[C@@H](O)CN2C(=O)[C@@H]2CCCN2C(=O)[C@H]([C@@H](C)O)NC(=O)[C@H](CO)NC(=O)[C@H](Cc2c[nH]c3ccccc23)NC(=O)[C@H](CC(=O)O)NC(=O)[C@H](CCCCNC(=N)N)NC1=O
- final HPLC purity: >98%
- isolated yield: 4%

Substance: CSCC[C@@H]1NC(=O)[C@@H]2CSCCC(=O)N3CN(CN(C3)C(=O)CCSC[C@H](NC(C)=O)C(=O)N3CCC[C@H]3C(=O)N[C@@H](Cc3cccc4ccccc34)C(=O)N[C@H](CC(=O)O)C(=O)N2)C(=O)CCSC[C@@H](C(N)=O)NC(=O)[C@H](Cc2c[nH]c3ccccc23)NC(=O)[C@@H]2C[C@@H](O)CN2C(=O)[C@@H]2CCCN2C(=O)[C@H]([C@@H](C)O)NC(=O)[C@H](CO)NC(=O)[C@H](Cc2c[nH]c3ccccc23)NC(=O)[C@H](CC(=O)O)NC(=O)[C@H](CCCCNC(=N)N)NC1=O
- final HPLC purity: >97%
- isolated yield: 10%

From publication PMC12557367 (Journal of Medicinal Chemistry, 2025)
